Publication PMC10798960
Results are given in words; binding and its absence hold for the method and conditions named. Binding seen in cells or lysates may run through a third protein. Some results given as binding are weak or reduced against the parent protein; the word gives no strength.

Amino acid sequences for entries named in this document (tags omitted).
UniProt Q04207: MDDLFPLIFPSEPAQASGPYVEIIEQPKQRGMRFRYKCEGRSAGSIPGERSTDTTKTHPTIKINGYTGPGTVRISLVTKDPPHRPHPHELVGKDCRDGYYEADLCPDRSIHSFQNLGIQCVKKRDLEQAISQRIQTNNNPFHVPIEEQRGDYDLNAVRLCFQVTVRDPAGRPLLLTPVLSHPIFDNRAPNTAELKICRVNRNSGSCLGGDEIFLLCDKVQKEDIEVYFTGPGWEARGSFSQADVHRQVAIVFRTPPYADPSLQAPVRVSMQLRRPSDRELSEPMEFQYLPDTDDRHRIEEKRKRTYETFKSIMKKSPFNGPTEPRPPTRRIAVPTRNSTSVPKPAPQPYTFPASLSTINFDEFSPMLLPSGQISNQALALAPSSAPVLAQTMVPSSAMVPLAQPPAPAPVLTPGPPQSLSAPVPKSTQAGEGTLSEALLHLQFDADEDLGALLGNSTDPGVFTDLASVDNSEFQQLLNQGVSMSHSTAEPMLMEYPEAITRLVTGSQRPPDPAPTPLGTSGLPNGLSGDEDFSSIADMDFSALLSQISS

Experiments:
[1] = target: T1, integrin β3 (ITGB3) (mouse (endogenous in primary astrocytes and spinal cord)) (UniProt O54890); test: co-IP; total protein lysate of mouse spinal cord tissue (NMO model mice, in vivo treatment groups); IP with antibodies against ITGB3 or NF-κB-P65 or IgG negative control, 4 °C overnight, Protein A/G magnetic beads, PBST washes, Western blot
T1 sequence: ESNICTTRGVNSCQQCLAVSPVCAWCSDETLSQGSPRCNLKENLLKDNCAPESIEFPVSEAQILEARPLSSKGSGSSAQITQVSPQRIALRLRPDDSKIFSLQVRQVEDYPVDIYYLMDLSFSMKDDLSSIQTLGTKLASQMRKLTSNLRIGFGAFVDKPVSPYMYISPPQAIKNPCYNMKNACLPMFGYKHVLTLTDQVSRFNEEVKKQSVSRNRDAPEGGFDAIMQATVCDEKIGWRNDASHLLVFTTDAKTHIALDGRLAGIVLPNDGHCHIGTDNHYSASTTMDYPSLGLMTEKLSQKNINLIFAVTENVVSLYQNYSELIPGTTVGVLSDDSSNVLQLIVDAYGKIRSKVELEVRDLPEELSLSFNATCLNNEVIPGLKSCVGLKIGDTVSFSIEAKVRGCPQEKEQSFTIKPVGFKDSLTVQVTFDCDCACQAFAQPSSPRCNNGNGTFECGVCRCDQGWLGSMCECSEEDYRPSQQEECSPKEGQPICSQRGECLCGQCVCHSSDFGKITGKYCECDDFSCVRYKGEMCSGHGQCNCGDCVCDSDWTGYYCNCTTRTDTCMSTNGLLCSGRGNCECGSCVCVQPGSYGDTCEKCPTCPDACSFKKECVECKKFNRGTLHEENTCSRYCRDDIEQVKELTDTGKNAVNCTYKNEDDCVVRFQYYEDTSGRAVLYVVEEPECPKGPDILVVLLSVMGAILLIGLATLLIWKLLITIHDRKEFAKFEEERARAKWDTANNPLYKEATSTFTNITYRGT

[2] = target: T1, integrin β3 (ITGB3) (mouse (endogenous in primary astrocytes and spinal cord)); test: co-IP; total protein lysate of primary mouse astrocytes; IP with antibodies against ITGB3 or NF-κB-P65 or IgG negative control, 4 °C overnight, Protein A/G magnetic beads, PBST washes, Western blot; cells untreated or treated for 4 hours with hsCtrl-IgG, hsAQP4-IgG, MFGE8, or MFGE8 with Cilengitide

NF-κB-P65 (from UniProt Q04207 1-549) was tested, and the binding [1] was “binds” and the binding [2] was “binds”.
